In US20180016328A1 (WASHINGTON UNIVERSITY, published 2018):
No constants are given. Whether binding was seen depends on the method and setting. Binding calls can cover weak binding; strength is not graded here.

B1: HJ8.5 antibody comprising IgG1 (antibody, V domains shown)
VH: EVKVEESGGGLVQPGGSMKLSCVVSGFTFSNYWVNWVRQSPEKGLEWVAQIRLKSDNYATHYEESVKGRFTISRDDSKSSVYLQMNNLRAEDSGIYYCTNWEDYWGQGTTLTVSS
VL: DIVLTQSPASLAVSLGQRATISCRASQSVSTSRYSYIHWYQQKPGQPPKLLIKYASNLESGVPARFSGSGSGTDFTLNIHPLEEEDAATYYCHHSWEIPLTFGAGTKLELK
B2: HJ8.5 antibody comprising IgG2ab (antibody, V domains shown)
VH: B1 VH
VL: B1 VL
B3: HJ8.5 antibody comprising IgG2b (antibody, V domains shown)
VH: B1 VH
VL: B1 VL

Experiments:
tau [1] = test: immunoprecipitation, Western blot for tau (FIG. 11D)
tau [2] = test: immunoprecipitation of the antibody, Western blot for tau (FIG. 11D)

binding (tau [1]) | binding (tau [2]) | Binder
binds | binds | B1
binds | binds | B2
binds | binds | B3
